Patent US20180043012A1 (CSL BEHRING RECOMBINANT FACILITY, published 2018)
No constants are given. Whether binding was seen depends on the method and setting. Some binding calls cover weakened binding; strength is not graded here.

The chains behind the UniProt entries cited, without tags or fusion partners. Residues count along the entry.
UniProt P04275, residues 764-2813: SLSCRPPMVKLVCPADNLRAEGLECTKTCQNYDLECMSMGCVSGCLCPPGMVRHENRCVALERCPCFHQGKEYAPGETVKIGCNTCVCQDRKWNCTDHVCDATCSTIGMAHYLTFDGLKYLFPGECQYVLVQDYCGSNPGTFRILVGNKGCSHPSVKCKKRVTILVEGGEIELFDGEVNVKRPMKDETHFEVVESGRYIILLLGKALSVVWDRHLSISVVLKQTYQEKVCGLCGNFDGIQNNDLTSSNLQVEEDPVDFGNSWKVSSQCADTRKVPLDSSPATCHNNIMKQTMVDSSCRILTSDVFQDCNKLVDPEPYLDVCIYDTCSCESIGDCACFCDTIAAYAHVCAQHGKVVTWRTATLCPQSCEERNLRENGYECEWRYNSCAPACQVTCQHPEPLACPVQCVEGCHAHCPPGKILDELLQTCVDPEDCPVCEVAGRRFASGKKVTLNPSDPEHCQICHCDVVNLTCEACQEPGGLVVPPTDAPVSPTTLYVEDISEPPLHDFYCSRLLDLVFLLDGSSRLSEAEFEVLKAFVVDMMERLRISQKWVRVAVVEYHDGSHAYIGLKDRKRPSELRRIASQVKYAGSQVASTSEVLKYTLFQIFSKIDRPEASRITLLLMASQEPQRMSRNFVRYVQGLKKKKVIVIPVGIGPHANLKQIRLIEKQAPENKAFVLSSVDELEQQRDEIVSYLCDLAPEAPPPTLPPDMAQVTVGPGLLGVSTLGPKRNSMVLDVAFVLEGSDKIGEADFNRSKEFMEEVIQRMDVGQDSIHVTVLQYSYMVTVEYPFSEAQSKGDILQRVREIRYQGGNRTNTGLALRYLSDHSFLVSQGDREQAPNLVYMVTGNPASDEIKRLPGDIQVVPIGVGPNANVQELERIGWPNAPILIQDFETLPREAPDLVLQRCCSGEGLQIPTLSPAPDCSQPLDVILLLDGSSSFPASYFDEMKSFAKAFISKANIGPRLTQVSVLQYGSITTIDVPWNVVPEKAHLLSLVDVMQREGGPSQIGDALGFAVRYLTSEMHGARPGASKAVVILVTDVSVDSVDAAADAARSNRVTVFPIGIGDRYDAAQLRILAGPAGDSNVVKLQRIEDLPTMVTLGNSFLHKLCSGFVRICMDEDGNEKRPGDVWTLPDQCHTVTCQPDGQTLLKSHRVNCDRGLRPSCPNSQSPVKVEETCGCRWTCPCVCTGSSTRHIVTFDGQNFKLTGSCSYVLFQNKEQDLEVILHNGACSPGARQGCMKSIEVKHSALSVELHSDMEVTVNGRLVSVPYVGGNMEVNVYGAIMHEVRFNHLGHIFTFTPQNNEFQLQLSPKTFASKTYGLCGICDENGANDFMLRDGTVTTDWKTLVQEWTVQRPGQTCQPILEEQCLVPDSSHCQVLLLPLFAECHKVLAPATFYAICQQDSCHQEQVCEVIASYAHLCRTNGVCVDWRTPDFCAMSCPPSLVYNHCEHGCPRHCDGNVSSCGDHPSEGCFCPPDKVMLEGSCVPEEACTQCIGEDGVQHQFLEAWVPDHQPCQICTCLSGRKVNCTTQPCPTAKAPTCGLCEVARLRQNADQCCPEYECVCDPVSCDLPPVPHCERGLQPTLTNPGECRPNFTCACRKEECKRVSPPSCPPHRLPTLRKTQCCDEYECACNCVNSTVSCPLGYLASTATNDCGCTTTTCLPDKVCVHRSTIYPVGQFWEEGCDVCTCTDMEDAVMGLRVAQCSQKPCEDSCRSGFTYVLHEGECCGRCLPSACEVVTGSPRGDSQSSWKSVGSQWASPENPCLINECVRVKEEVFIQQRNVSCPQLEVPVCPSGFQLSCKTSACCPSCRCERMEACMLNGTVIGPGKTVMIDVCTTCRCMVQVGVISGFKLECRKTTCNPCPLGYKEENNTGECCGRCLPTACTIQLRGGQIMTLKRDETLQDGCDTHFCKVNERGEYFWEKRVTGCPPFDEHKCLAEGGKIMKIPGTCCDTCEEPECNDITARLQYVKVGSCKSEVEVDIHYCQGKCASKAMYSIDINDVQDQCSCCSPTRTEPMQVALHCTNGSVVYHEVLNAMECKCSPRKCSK

How the values were obtained:
[1] = target: T1, recombinant human CLEC10A, extracellular domain (R&D Systems) (human) (UniProt Q8IUN9); experiment: SPR (Biacore T200), CLEC10A immobilized on C1 chip, VWF monomers 31.25-4,000 nM as analyte
T1 sequence (looked up): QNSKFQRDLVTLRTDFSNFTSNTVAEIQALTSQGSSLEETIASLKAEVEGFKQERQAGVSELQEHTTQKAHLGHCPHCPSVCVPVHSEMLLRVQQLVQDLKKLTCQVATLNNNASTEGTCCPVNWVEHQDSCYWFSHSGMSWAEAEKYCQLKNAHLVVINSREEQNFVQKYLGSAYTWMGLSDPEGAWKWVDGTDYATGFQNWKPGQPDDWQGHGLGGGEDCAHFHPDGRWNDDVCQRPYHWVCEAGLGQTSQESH

[2] = target: T2, mouse MGL1 (CLEC10A orthologous mouse receptor protein) (mouse) (UniProt P49300); experiment: SPR, steady state affinity fit
T2 sequence (looked up): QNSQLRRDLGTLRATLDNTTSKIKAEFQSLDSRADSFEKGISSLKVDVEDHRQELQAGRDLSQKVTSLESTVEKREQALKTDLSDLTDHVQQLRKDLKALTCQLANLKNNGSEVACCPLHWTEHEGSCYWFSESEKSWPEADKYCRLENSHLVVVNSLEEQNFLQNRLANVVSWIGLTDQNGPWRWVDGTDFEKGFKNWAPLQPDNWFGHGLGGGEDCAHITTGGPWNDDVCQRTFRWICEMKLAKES

[3] = target: T1, recombinant human CLEC10A, extracellular domain (R&D Systems) (human); experiment: SPR, receptor immobilized on CM3 chip, VWF monomers as analyte
[4] = target: T2, mouse MGL1 (CLEC10A orthologous mouse receptor protein) (mouse); experiment: as above

Measured: binding

purified monomeric human VWF (von Willebrand factor) (from UniProt P04275 764-2813) (ligand)
binds: all assays above
